# Results of single-concentration screens

Amino acid sequences for entries named in this document (tags omitted). Residues count along the entry.
UniProt P9WNZ1, whole entry: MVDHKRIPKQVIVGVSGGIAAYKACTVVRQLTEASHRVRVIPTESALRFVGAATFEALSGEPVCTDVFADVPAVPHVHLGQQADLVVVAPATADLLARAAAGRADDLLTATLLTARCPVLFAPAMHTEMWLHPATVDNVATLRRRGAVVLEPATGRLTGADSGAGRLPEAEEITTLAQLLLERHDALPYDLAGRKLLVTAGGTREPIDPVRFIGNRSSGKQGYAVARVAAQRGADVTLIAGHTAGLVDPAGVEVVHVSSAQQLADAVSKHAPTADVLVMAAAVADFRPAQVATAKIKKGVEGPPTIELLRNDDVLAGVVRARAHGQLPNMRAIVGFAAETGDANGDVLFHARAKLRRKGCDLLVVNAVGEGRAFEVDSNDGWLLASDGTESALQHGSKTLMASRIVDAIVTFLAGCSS
UniProt I6X8D2, whole entry: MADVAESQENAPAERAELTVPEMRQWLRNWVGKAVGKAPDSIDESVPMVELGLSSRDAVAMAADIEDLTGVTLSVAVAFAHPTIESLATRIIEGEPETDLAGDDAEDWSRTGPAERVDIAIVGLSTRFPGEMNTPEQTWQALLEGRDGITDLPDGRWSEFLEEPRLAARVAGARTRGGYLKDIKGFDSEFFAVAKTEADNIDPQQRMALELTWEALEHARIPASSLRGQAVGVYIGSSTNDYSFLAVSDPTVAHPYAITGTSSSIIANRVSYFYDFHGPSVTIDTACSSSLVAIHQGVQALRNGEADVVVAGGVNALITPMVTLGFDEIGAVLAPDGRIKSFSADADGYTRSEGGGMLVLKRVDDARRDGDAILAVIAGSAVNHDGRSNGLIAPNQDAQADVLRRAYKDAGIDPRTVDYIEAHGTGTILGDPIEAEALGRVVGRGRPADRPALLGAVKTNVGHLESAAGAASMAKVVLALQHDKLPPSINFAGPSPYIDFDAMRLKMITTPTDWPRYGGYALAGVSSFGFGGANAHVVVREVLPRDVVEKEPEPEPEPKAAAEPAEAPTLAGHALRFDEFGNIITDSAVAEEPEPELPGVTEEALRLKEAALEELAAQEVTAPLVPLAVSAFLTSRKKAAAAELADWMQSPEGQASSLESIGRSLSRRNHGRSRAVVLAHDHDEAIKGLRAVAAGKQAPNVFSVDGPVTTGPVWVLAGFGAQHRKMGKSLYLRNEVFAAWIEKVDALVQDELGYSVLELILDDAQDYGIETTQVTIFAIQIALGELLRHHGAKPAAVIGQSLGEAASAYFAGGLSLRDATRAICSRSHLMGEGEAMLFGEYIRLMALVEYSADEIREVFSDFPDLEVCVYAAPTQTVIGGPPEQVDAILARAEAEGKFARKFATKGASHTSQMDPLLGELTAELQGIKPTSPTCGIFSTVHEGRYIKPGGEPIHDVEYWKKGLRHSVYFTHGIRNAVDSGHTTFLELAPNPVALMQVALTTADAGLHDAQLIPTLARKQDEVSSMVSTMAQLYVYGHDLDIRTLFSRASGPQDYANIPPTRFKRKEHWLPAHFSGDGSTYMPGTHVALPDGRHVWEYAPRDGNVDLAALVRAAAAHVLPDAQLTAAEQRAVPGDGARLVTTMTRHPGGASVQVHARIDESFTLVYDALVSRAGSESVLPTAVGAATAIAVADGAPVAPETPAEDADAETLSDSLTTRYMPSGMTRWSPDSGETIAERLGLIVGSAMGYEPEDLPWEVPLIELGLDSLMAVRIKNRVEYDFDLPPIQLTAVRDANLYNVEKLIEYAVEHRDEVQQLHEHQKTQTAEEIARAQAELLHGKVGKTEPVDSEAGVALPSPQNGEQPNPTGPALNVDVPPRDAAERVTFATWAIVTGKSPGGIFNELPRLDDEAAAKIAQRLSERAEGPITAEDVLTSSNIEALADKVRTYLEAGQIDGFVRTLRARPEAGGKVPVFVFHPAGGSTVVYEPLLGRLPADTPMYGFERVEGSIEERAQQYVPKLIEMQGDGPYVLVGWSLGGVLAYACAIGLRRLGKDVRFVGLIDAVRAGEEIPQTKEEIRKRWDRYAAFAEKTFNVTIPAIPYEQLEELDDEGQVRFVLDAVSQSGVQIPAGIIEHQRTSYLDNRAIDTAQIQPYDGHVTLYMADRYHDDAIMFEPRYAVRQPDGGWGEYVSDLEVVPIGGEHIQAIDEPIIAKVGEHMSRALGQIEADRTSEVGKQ
UniProt P9WPC5, whole entry: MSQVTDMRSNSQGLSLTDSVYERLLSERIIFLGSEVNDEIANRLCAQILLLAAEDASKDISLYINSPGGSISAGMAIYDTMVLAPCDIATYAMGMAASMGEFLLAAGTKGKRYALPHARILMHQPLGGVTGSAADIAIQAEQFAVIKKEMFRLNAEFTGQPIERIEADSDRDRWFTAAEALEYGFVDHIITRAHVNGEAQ
UniProt P9WPC3, whole entry partner: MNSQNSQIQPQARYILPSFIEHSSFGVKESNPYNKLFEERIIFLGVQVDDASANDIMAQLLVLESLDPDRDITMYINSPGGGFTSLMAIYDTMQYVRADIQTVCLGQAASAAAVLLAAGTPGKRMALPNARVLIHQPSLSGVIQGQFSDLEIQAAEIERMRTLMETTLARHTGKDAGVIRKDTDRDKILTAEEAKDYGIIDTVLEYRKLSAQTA
UniProt A4I591, 1-473: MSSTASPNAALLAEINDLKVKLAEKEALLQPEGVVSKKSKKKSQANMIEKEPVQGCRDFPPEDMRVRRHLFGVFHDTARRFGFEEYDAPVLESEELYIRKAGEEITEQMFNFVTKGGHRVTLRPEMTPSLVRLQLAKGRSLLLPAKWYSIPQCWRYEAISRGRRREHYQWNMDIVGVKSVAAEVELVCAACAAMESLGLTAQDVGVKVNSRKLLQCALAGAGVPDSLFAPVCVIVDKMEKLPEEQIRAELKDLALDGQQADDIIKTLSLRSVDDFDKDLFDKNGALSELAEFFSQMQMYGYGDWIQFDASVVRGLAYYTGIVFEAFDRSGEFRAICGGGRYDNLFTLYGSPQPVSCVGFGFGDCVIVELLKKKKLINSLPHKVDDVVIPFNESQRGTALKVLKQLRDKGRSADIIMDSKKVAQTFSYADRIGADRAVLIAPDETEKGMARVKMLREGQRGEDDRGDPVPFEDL
UniProt P9WFT3, whole entry: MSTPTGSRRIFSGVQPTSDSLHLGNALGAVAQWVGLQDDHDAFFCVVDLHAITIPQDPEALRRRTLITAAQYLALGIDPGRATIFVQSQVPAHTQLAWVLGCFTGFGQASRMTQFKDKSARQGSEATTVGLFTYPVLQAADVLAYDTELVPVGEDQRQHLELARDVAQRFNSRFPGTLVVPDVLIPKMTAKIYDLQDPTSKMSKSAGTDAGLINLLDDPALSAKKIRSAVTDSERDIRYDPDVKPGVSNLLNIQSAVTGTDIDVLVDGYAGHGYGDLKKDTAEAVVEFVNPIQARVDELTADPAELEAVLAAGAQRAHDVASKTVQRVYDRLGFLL

Source: ChEMBL document CHEMBL3988442, “University of Dundee, Small-Polar-MMV Screening Library” (2021).

A: 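Enzyme assay of CoaBC with a phosphate dye (Biomol Green) read at 650 nm. Target: Coenzyme A biosynthesis protein CoaBC, Mycobacterium tuberculosis (UniProt P9WNZ1). Concentration: 30 µM. Direction is inferred from only a few compounds that gave an IC50; most scored high, so higher reads as stronger inhibition. Most strong results did not repeat in a second test. Of about 67,000 compounds tested this way, about 40 (0.06%) reached 50% or more in at least one test.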
B: 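Enzyme assay of the thioesterase domain of polyketide synthase 13; the read-out is not stated. Target: Polyketide synthase Pks13, Mycobacterium tuberculosis (UniProt I6X8D2). Concentration: 30 µM. Higher reads as stronger inhibition (inferred from which compounds were picked for retests). Of about 67,000 compounds tested this way, about 300 (0.46%) reached 50% or more in at least one test.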
C: 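Protease assay of ClpP1P2, read by the AMC dye that it sets free. Target: ClpP1P2, Mycobacterium tuberculosis (UniProt P9WPC5 and UniProt P9WPC3). Compounds at 50 µM. Higher reads as stronger inhibition, judged from the few compounds that gave an IC50. Most other retested compounds had strongly negative values. Size under these conditions: about 69,000 compounds, about 10 of them at 50% or above in at least one test.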
D: 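Histidine-tRNA ligase, Leishmania infantum (UniProt A4I591). Enzyme assay of histidyl-tRNA synthetase; the read-out is not stated. Compounds at 30 µM. Higher reads as stronger inhibition (inferred: compounds with an IC50 in retests scored well above the rest). The assay is labelled LdHisRS but filed under L. infantum. Of about 69,000 compounds tested this way, about 410 (0.6%) reached 50% or more in at least one test.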
E: 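Enzyme assay of tryptophanyl-tRNA synthetase; the read-out is not stated. Target: Tryptophan-tRNA ligase, Mycobacterium tuberculosis (UniProt P9WFT3). Compounds at 10 µM. Direction is not recorded; retested compounds ran higher, which suggests that high means inhibition. Size under these conditions: about 65,000 compounds, about 64 of them at 50% or above in at least one test.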

The filed quantity is “Percent Effect” (%).
The controls that fix the scale are not given in the record; negative values are as filed.
The compounds are a random part of those screened.
A dash means the value is not listed here; it may have been measured.

| compound | A | B | C | D | E |
|---|---|---|---|---|---|
| `CC(=O)N1CCCC1c1ccc(Br)cn1` (centres unmarked) | -2.632% | 61.48% | 15.44% | 8.633% | -1.563% |
| `CN1CCN(C(=O)C2CC=CC2)c2ccccc21` | 7.066% | -6.223% | -3.142% | 20.69% | 11.89% |
| `CCc1ccc(S(=O)(=O)Nc2ccncc2)s1` | 15.66% | -20.22% | 10.18% | 21.84% | -0.8972% |
| `O=C(O)c1cc(S(=O)(=O)Nc2ccc(Cl)cc2)cc2c1OCCO2` | 2.089% | 3.31% | 3.943% | 8.108% | 4.971% |
| `Cc1cc(C(=O)NCc2cccnc2N(C)C)c(C)o1` | 5.115% | -32.19% | -20.04% | 14.68% | 20.07% |
| `Cn1cncc1-c1nnc([C@H]2CCN(Cc3ccc(F)c(F)c3)C2)o1` | 6.483% | -24.41% | -3.5% | 18.92% | -0.3814% |
| `Cc1nc(CN2CCc3ncnc(-c4ccsc4)c3CC2)cs1` | 4.315% | -15.11% | -10.75% | 8.824% | -7.49% |
| `CC(=O)N[C@@H]1CN(C(=O)c2ccncc2)C[C@H]1c1ccc(C)cc1` | 3.719% | -38.39% | -8.139% | 5.333% | -1.451% |
| `CS(=O)(=O)N1CC[C@H]2OCC[C@@]2(C(=O)NCCc2ccccn2)C1` | 1.235% | -5.054% | 1.393% | 8.182% | - |
| `CC(C)n1ccnc1CN1CCCN(C(=O)c2cscn2)CC1` | 0% | -10.28% | -20.91% | 2.778% | -0.1337% |
| `COc1ccc(CN(Cc2cnc(N)nc2)CC2CCCO2)c(OC)c1` (centres unmarked) | 0.7353% | 2.893% | -3.059% | 15.62% | - |
| `CCc1nc2c(s1)C(N(C)C(C)=O)CCC2` (centres unmarked) | 1.946% | 6.638% | -10.11% | -0.9009% | -1.519% |
| `Cc1ccccc1CN1CCN(CC(=O)Nc2cccnc2)CC1` | 5.641% | -20.89% | 2.531% | 13.33% | -0.3909% |
| `Cc1nc(N)sc1C(=O)N1Cc2ccccc2OC2(CCOCC2)C1` | -3.65% | -18.4% | -9.131% | 3.158% | 5.275% |
| `CCC(C)NC(=O)c1ccn(COc2ccccc2Cl)n1` (centres unmarked) | 3.037% | -18.81% | -9.589% | 16.81% | -0.5913% |
| `CC(C)CCC(=O)N1CCN(c2ncnc3nc(N)ccc23)CC1` | 6.699% | -12.57% | -6.214% | 18.33% | 0.4854% |
| `CS(=O)(=O)NC[C@@H]1OC[C@H]2CN(C(=O)c3cnccn3)CC[C@H]21` | -0.9772% | -28.7% | -3.309% | 20% | -1.139% |
| `COc1cc(Oc2ccc(C(N)=O)cn2)ccc1CN1CCCC1` | -5.622% | -0.95% | 4.662% | 11.48% | 0.2441% |
| `O=C(O)c1c(Cl)ncn1-c1ccccc1` | 1.818% | -3.612% | -7.468% | 4.082% | 3.965% |
| `CC(=O)N1CC2(CCN(Cc3ccc(Cl)cc3)CC2)Cc2ccccc21` | 6.579% | -14.65% | 2.013% | 12.41% | -5.445% |
| `CCc1nc(CN2CCN(C(=O)c3csnn3)CC2)cs1` | 3.113% | -7.422% | -28.87% | 18.35% | -4.257% |
| `CCc1nc(CN2CCOC(Cn3nc(C)nc3C)C2)no1` (centres unmarked) | 5.509% | -8.018% | 13.81% | 13.64% | 5.945% |
| `Cc1cc(C[C@@H]2COC[C@@H]2NC(=O)CN2CCc3ccccc3C2)on1` | 6.379% | 34.34% | -8.02% | 5.376% | 7.746% |
| `CC(NS(=O)(=O)N(C)C(C)C)C(=O)N(C)C` (centres unmarked) | 0.319% | 5.717% | -5.465% | -3.333% | -8.058% |
| `COc1ccc(-c2ccc(C(=O)N3CCOCC3CC(N)=O)o2)cc1` (centres unmarked) | 3.469% | -16.93% | 2.902% | 14.75% | -0.2441% |
| `Cc1ccc(-n2cc(C(=O)N3CCCC(n4cccn4)C3)nn2)cc1` (centres unmarked) | -5.898% | -16.25% | -8.667% | 17.09% | -2.328% |
| `CCN(CC)S(=O)(=O)N1C[C@@H](c2ccccc2)[C@H]2[C@H]1CCCCCN2C` | -1.399% | -13.59% | -12.27% | 14.18% | -6.011% |
| `COCCO[C@H]1CCN(c2cc(OC)ncn2)[C@H]1Cc1cnn(C)c1` | 14.16% | -26.65% | -8.652% | 10.53% | -5.088% |
| `Cn1cnc2c1C(COCc1ccccc1)N(Cc1ccncc1)CC2` (centres unmarked) | 7.487% | -5.434% | 3.91% | 20.75% | 6.611% |
| `Cc1ccc(-c2cc(C(=O)N3CCCC3c3cccnc3)[nH]n2)o1` (centres unmarked) | 7.143% | -4.683% | 0.616% | 19.44% | -4.131% |
| `Cc1nc(NC(=O)NC(CS(C)(=O)=O)c2ccccc2)sc1C` (centres unmarked) | 5.443% | -22.74% | -4.289% | 6.024% | 0.9517% |
| `Cc1ccnc(OC[C@]23COC[C@H]2CN(C(=O)Cc2ccsc2)C3)n1` | 8.148% | -10.83% | -5.691% | 11.11% | -4.265% |
| `C[S+]([O-])c1cccc(NC(=O)N[C@H](CCO)c2ccccc2)c1` (some centres unmarked) | 5.018% | -4.995% | 0.975% | 8.333% | 0.9266% |
| `CCN(CC)c1ccc2ccc(C(=O)N3CCCCO3)cn12` | 17.4% | 21.72% | -2.198% | 4.202% | -4.216% |
| `CC(C)NC(=O)C1CN(C(=O)c2ccco2)CC12CCOCC2` (centres unmarked) | 1.158% | - | 6.569% | 17.65% | -5.657% |
| `O=S(=O)(c1ccc(Cl)cc1)N1CCC(OCc2ccccn2)C1` (centres unmarked) | - | -119.3% | -3.474% | 25.83% | 1.651% |
| `Cc1cccc2c1OCCCC2NCc1nccn1Cc1ccccc1` (centres unmarked) | 11.76% | -38.92% | -17.75% | 7.692% | 5.146% |
| `Cc1c[nH]nc1C1CN(Cc2cnn(-c3ccccc3C(=O)O)c2)C1` | -2.392% | 10.11% | -3.444% | 12.95% | -7.292% |
| `Cc1n[nH]c(C)c1C1COCCN1c1ncnc2sccc12` (centres unmarked) | 1.653% | -4.954% | -11.02% | 0.8929% | -3.403% |
| `O=C(NC[C@H]1OC[C@@H](NC2CCCCC2)[C@@H]1O)Nc1ccccc1` | 4.636% | 18.31% | 0.6571% | -4.054% | 4.628% |
| `COc1ccccc1-c1ncc(CN2CCCC[C@H](N(C)C)C2)s1` | 5.466% | -14.61% | -7.425% | 19.05% | -1.156% |
| `O=S(=O)(CC1CCCCO1)Nc1c(F)cccc1-n1cccn1` (centres unmarked) | 4.669% | -1.223% | -0.9692% | 6.306% | -2.469% |
| `O=C(c1cccs1)N1CCCC2(COCCN(c3cccnc3)C2)C1` (centres unmarked) | 6% | -4.907% | -2.329% | 12% | -2.189% |
| `CC(O)c1cnn(-c2ccccc2)c1` (centres unmarked) | -4.204% | -7.054% | -4.914% | -2.073% | 1.943% |
| `COc1ccccc1NC(=O)N(CCO)Cc1ccsc1` | -1.722% | -11.32% | -5.388% | -12.39% | 1.29% |
| `Cc1cc(C(=O)N2CCc3[nH]cnc3C2C(=O)O)c(-c2ccccc2)o1` (centres unmarked) | 2.828% | -15.48% | -0.6162% | 11.46% | -2.991% |
| `N#Cc1ncn(CCC(=O)Nc2ccc(Cl)cc2F)n1` | 4.516% | - | 2.246% | 19.05% | -1.727% |
| `O=C(CN1CCC(OCC2CCCO2)CC1)NCC(F)(F)F` (centres unmarked) | -3.891% | 3.778% | -2.045% | 2.703% | 5.128% |